Laboratory results from publication PMC11183137.

By UniProt entry, the sequences of proteins in these tests, tags left out.
UniProt Q9EPB4: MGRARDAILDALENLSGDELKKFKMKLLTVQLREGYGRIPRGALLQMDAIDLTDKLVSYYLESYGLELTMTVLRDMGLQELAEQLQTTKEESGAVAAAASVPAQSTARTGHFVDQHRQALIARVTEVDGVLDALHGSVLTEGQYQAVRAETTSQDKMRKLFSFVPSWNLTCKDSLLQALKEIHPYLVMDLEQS
UniProt O70145: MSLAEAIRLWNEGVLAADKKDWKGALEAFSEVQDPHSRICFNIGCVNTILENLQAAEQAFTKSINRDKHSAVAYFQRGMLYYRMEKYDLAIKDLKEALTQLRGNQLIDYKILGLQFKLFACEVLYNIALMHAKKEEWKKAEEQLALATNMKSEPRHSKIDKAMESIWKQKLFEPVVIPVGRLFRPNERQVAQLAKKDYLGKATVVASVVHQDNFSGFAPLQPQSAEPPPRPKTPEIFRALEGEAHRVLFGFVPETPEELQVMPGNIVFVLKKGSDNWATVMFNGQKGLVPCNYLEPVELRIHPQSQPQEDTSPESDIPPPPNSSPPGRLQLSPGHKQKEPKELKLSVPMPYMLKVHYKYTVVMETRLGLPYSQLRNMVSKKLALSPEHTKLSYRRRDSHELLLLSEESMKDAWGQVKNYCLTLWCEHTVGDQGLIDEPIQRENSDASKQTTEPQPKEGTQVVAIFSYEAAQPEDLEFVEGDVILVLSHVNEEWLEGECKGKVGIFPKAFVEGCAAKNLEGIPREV

B1: NCF4 (p40^phox), endogenous in mouse BMDMs (protein, UniProt P97369 1-339)
chain: MALAQQLRSESDFEQLPDDVAVSANIADIEEKRGFTSHFVFVIEVKTKGGSKYLIYRRYRQFYALQSKLEERFGPESKNSPFTCSLPTLPAKVYMGAKQEIAETRIPALNAYMKNLLSLPVCVLMDPDVRIFFYQSAYDAEQVPQALRRLRPRTRKIKGVSPQGAIMDRMEAPRAEALFDFTGNSKLELSFKAGDVIFLLSKINKDWLEGTSQGATGIFPGSFVKILKDFPEDEDTTNWLRCYFYEDTGKTIKDIAVEEDLSSTPLFKDLLALMRREFQREDIALSYQDAEGDLVRLLSDEDVGLMVKQARGLPSQKRLFPWKLHVTQKDNYSVYNTVP
B2: NCF1 (p47^phox), endogenous in mouse BMDMs (protein, UniProt Q09014 1-390)
chain: MGDTFIRHIALLGFEKRFIPSQHYVYMFLVKWQDLSEKVVYRKFTEIYEFHKMLKEMFPIEAGEIHTENRVIPHLPAPRWFDGQRAAESRQGTLTEYFNGLMGLPVKISRCPHLLDFFKVRPDDLKLPTDSQAKKPETYLVPKDGKNNVADITGPIILQTYRAIADYEKSSGTEMTVATGDVVDVVEKSESGWWFCQMKTKRGWVPASYLEPLDSPDEAEDPDPNYAGEPYVTIKAYAAVEEDEMSLSEGEAIEVIHKLLDGWWVVRKGDITGYFPSMYLQKAGEEITQAQRQIRGRGAPPRRSTIRNAQSIHQRSRKRLSQDTYRRNSVRFLQQRRRPGRPGPLSTDGTKDNPSTPRVKPQPAVPPRPSSDLILHRCTESTKRKLTSAV

molecular target: apoptosis-associated speck-like protein containing a CARD (ASC), endogenous in mouse BMDMs (mouse (endogenous in BMDMs)) (UniProt Q9EPB4); assay: affinity purification with mass spectrometry

binding, binds:
NCF2 (p67^phox), endogenous in mouse BMDMs (from UniProt O70145 1-525)
B1
B2

No constants are given. Whether binding was seen depends on the method and setting. In cells and extracts the contact can be indirect. Here binding means that the protein was enriched with, or labelled near, the bait; the list need not be complete.
